Results: the supplement of paper PMC10849652
Some of the results follow.

Sequences of proteins named here, by UniProt entry; tags and fusion partners are left off. A change or cut given only in a name is not applied to a line headed by its entry.
UniProt O95271: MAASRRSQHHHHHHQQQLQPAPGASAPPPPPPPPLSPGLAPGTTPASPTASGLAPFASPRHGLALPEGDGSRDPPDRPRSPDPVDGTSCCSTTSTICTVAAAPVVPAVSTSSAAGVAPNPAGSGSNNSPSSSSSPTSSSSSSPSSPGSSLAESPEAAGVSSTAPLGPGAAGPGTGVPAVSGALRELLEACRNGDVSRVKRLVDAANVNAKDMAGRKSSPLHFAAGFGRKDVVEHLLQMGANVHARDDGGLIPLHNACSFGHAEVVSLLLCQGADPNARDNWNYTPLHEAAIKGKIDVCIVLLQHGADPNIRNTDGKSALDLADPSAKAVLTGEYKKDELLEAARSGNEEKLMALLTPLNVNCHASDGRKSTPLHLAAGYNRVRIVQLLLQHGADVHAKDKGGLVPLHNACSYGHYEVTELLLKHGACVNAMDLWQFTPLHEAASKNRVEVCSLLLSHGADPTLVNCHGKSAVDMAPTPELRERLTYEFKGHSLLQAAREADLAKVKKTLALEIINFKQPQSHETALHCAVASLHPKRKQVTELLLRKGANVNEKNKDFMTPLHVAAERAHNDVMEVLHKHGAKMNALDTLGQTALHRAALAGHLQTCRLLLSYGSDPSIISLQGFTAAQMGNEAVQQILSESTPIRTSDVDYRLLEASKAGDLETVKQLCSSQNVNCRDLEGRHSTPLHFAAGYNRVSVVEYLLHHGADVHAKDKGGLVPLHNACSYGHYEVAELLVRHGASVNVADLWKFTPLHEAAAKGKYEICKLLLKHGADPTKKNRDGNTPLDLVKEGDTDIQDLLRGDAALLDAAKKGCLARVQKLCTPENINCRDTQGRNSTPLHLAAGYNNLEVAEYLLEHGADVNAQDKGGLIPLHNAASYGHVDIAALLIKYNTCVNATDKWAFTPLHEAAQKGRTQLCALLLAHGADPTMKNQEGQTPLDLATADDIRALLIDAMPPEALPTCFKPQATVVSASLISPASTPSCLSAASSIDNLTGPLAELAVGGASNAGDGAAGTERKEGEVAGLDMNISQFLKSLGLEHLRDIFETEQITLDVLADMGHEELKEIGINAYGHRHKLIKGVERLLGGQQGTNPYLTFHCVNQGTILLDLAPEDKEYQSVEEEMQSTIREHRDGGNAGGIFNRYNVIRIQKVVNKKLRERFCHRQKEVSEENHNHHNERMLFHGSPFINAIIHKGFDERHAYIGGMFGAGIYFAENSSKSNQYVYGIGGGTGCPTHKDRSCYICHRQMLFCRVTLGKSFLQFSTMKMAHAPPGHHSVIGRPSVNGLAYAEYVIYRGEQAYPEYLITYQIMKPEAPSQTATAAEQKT
UniProt P02585, whole entry, looked up: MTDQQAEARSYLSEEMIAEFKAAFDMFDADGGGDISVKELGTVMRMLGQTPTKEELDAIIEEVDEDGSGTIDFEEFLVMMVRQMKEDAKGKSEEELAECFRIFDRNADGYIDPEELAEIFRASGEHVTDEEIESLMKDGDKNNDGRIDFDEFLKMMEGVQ
UniProt P06753, whole entry, looked up: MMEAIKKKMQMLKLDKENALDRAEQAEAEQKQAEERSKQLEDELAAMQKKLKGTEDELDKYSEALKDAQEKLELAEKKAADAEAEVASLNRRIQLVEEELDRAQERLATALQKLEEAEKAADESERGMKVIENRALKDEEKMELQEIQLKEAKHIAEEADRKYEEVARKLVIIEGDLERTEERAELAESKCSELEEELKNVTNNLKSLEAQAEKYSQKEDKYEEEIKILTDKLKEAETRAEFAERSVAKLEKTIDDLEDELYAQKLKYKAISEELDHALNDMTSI
UniProt Q96HH6: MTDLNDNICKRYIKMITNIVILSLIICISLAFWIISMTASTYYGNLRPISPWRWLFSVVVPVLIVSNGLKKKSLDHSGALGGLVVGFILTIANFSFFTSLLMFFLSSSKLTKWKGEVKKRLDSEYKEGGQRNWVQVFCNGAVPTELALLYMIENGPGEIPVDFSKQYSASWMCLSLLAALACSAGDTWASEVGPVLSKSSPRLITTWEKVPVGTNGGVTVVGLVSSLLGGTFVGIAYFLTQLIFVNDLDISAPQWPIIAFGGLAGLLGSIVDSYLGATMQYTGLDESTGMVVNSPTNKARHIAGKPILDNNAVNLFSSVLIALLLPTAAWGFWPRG
UniProt P55327: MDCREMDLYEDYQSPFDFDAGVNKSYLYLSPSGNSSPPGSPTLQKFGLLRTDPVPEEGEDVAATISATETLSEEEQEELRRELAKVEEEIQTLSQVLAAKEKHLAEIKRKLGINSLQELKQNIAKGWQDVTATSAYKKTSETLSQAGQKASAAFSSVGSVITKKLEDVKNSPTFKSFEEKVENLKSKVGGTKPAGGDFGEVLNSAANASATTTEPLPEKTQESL
UniProt Q8N9V7: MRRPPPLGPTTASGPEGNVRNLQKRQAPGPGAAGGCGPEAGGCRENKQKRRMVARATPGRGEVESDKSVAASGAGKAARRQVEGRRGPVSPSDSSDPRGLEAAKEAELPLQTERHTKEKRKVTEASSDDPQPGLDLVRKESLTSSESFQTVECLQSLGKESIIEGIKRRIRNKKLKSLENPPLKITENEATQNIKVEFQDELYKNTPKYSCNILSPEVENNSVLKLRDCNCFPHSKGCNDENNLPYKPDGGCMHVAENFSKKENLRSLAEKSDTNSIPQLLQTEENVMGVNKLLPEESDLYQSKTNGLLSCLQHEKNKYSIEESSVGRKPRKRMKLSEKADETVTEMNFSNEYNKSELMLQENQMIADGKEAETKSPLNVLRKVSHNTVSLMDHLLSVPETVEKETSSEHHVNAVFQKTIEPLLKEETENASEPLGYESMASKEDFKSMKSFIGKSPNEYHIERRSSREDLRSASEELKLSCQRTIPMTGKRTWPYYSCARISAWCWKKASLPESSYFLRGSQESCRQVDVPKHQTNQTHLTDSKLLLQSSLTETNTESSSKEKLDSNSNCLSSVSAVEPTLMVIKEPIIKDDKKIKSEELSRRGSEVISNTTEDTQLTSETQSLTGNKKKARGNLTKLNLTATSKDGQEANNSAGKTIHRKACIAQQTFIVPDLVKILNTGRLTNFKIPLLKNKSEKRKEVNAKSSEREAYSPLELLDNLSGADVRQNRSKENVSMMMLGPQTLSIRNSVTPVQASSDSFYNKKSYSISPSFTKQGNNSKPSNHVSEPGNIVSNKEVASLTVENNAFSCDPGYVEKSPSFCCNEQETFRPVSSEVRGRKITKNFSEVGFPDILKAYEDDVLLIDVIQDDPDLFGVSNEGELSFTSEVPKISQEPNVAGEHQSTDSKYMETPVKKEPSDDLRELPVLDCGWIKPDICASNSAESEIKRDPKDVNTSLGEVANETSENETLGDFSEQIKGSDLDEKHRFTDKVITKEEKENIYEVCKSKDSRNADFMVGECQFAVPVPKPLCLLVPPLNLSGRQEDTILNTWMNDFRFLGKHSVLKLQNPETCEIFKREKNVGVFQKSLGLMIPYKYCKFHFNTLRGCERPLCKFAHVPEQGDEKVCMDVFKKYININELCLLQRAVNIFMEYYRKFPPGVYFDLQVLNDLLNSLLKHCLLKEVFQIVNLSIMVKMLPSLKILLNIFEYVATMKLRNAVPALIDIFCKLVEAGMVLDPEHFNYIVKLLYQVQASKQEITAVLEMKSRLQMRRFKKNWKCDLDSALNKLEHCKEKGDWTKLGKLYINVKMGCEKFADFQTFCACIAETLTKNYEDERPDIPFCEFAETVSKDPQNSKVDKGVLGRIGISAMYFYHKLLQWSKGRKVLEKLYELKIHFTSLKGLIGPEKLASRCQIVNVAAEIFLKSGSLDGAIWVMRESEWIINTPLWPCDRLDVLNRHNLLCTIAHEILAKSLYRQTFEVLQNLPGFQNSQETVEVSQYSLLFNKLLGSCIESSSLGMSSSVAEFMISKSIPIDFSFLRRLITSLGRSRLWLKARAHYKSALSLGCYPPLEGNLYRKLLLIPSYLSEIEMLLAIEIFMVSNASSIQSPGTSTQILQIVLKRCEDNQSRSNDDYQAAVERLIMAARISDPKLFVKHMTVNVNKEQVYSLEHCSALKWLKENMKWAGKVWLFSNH
UniProt Q86W33: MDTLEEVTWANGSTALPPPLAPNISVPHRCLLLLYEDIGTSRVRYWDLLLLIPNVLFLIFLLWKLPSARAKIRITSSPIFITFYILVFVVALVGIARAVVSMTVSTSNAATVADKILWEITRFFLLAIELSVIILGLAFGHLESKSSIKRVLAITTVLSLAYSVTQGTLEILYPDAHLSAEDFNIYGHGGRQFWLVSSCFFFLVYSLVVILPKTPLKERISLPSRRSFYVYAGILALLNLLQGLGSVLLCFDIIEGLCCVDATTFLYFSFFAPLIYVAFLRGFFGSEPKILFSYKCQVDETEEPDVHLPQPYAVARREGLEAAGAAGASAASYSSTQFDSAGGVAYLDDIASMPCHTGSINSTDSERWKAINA
UniProt Q8N2U0: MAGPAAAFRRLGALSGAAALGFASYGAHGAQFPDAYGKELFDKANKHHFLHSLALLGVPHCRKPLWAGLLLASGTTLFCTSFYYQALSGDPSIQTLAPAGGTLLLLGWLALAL
UniProt Q96Q45: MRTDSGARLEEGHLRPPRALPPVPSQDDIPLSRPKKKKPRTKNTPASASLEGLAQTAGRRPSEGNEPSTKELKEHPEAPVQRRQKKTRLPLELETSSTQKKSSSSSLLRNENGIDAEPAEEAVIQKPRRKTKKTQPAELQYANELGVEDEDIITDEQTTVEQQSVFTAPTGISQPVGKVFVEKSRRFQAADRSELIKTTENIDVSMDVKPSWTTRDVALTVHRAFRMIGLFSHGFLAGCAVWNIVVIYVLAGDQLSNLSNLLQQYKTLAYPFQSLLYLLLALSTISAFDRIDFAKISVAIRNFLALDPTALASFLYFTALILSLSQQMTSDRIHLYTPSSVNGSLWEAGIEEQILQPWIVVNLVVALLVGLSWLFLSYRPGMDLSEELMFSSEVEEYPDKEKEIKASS
UniProt Q8NCS4: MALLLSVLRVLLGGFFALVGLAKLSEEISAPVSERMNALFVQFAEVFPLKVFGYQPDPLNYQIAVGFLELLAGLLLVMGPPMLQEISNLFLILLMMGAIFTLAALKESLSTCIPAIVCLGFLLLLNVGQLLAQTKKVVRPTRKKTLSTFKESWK

compound: CS(=O)(=O)CCNCc1ccc(-c2ccc3ncnc(Nc4ccc(OCc5cccc(F)c5)c(Cl)c4)c3c2)o1 [lapatinib]; assay: log2 fold change, soluble protein after heating vs DMSO (PISA); higher = thermal stabilisation; K562 lysate, 10 uM; active = over 0.2 and 3.5 SD of the protein, either way, in both replicates (recomputed)
Procedure, shortened: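 Thermal stability, expressed as log-two fold change relative to solvent controls, is given from duplicates. Crude K562 extract in PBS pH 7.4 with 1 mM MgCl2, at 1 mg/mL protein, was treated with 10 μM compound for 30 min and heated in aliquots for 3 min across 48°C-58°C. After pooling, adjustment to 0.5% NP-40 at 4°C and centrifugation at 21,000xg for 90 min, supernatant protein was measured by TMTpro 16plex LC-MS/MS with channel sums equalised.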

log2 fold change, inactive:
TNKS (UniProt O95271) -0.085
TNNC2 (UniProt P02585) 0.018
TPM3 isoform 3 (UniProt P06753) -0.009
TMEM19 (UniProt Q96HH6) -0.008
TPD52 isoform 3 (UniProt P55327) 0.011
TOPAZ1 (UniProt Q8N9V7) 0.123
TPRA1 (UniProt Q86W33) 0.069
TMEM256 (UniProt Q8N2U0) 0.007
TMEM237 isoform 3 (UniProt Q96Q45) -0.131
TMEM35B (UniProt Q8NCS4) -0.011
TPRG1L (UniProt Q5T0D9) 0
